These results are taken from article PMC3514216, “SRC Homology 2 Domain Binding Sites in Insulin, IGF-1 and FGF receptor mediated signaling networks reveal an extensive potential interactome” (Cell Communication and Signaling : CCS, 2012).

Assay [1] deals with T1, FRS2 (Y196) phosphopeptide QVHTpYVNTTGV, SPOT array.
T1 sequence (peptide, phosphotyrosine at position 5 (Y196); membrane-bound): QVHTYVNTTGV
The experiment in a line: peptide or protein array; SPOT array of 192 membrane-bound 11-mer phosphotyrosine peptides; GST-SH2 0.25 uM in TBS-T with 5% nonfat milk and 1 mM DTT, 1.5 h, room temperature; anti-GST and Alexa-Fluor-680 secondary, Li-Cor Odyssey; array positive >3X the array mean, array negative <1X, indeterminate between; both purified.

For assay [2], the target named is T2, FRS2 (Y349) phosphopeptide ALLNpYENLPSL, SPOT array.
T2 sequence (peptide, phosphotyrosine at position 5 (Y349); membrane-bound): ALLNYENLPSL
Described as above.

The target of assay [3] is T3, p130Cas (Y664) phosphopeptide WMEDpYDYVHLQ, SPOT array.
T3 sequence (peptide, phosphotyrosine at position 5 (Y664); membrane-bound): WMEDYDYVHLQ
Described as above.

The target in assay [4] is T4, p62DOK1 (Y398) phosphopeptide KEEGpYELPYNP, SPOT array.
T4 sequence (peptide, phosphotyrosine at position 5 (Y398); membrane-bound): KEEGYELPYNP
The description is as above.

The target of assay [5] is T5, IRS-1 (Y1179) phosphopeptide NGLNpYIDLDLV, SPOT array.
T5 sequence (peptide, phosphotyrosine at position 5 (Y1179); membrane-bound): NGLNYIDLDLV
Described as above.

Assay [6] has as its target PDGFRb (Y1021) phosphopeptide ADNDpYIIPLPD, SPOT array. The description is as above.
In assay [7] the target is IRS-1 (Y896) phosphopeptide SPGEpYVNIEFG, SPOT array. The assay is described as above.
For assay [8], the target named is T6, InsR (Y1185,89,90) triply phosphorylated peptide TRDIpYETDpYpYR, SPOT array.
T6 sequence (peptide, phosphotyrosine at positions 5, 9 and 10 (Y1185, Y1189, Y1190); membrane-bound): TRDIYETDYYR
Described as above.

Assay [9] concerns the target T7, IRS-2 (Y540) phosphopeptide GGEFpYGYMTMD, SPOT array.
T7 sequence (peptide, phosphotyrosine at position 5 (Y540); membrane-bound): GGEFYGYMTMD
The description is as above.

In assay [10] the target is T8, FRS2 (Y436) phosphopeptide RQLNpYIQVDLE, SPOT array.
T8 sequence (peptide, phosphotyrosine at position 5 (Y436); membrane-bound): RQLNYIQVDLE
The assay is described as above.

In assay [11] the target is FGFR3 (Y760) phosphopeptide STDEpYLDLSAP, SPOT array. Described as above.
The target in assay [12] is FGFR3 (Y760) phosphopeptide STDEpYLDLSAP, Rhodamine B-labelled. The experiment in a line: fluorescence polarisation; Rhodamine B-labelled peptide in solution with SH2 domain; Beacon 2000; as previously described [40]; both purified. In general terms: In fluorescence polarisation assays a small probe gives low polarisation when free and higher when bound to something large.

In assay [13] the target is T9, p62DOK1 (Y398) phosphopeptide KEEGpYELPYNP, Rhodamine B-labelled.
T9 sequence (peptide, phosphotyrosine at position 5 (Y398); Rhodamine B label): KEEGYELPYNP
The assay is described as above.

Assay [14] deals with T10, p130Cas (Y362) phosphopeptide AEDVpYDVPPPA, Rhodamine B-labelled.
T10 sequence (peptide, phosphotyrosine at position 5 (Y362); Rhodamine B label): AEDVYDVPPPA
The description is as above.

For assay [15], the target named is T11, p62DOK1 (Y315) phosphopeptide QDSLpYSDPLDS, SPOT array.
T11 sequence (peptide, phosphotyrosine at position 5 (Y315); membrane-bound): QDSLYSDPLDS
Briefly: peptide or protein array; SPOT array of 192 membrane-bound 11-mer phosphotyrosine peptides; GST-SH2 0.25 uM in TBS-T with 5% nonfat milk and 1 mM DTT, 1.5 h, room temperature; anti-GST and Alexa-Fluor-680 secondary, Li-Cor Odyssey; array positive >3X the array mean, array negative <1X, indeterminate between; both purified.

For assay [16], the target named is T12, p62DOK1 (Y296) phosphopeptide PPALpYAEPLDS, SPOT array.
T12 sequence (peptide, phosphotyrosine at position 5 (Y296); membrane-bound): PPALYAEPLDS
The description is as above.

The target in assay [17] is T13, FGFR1 (Y463) phosphopeptide GVSEpYELPEDP, Rhodamine B-labelled.
T13 sequence (peptide, phosphotyrosine at position 5 (Y463); Rhodamine B label): GVSEYELPEDP
Briefly: fluorescence polarisation; Rhodamine B-labelled peptide in solution with SH2 domain; Beacon 2000; as previously described [40]; both purified.

The target in assay [18] is T14, PLCγ1 (Y783) phosphopeptide NPGFpYVEANPM, SPOT array.
T14 sequence (peptide, phosphotyrosine at position 5 (Y783); membrane-bound): NPGFYVEANPM
Briefly: peptide or protein array; SPOT array of 192 membrane-bound 11-mer phosphotyrosine peptides; GST-SH2 0.25 uM in TBS-T with 5% nonfat milk and 1 mM DTT, 1.5 h, room temperature; anti-GST and Alexa-Fluor-680 secondary, Li-Cor Odyssey; array positive >3X the array mean, array negative <1X, indeterminate between; both purified.

These are yes or no findings as the source states them, for the method shown. For part of these data: A result given as binding can be weak or reduced; the word gives no strength. For part of these data: Where a sequence is shown, tags or fusion partners need not be part of it.

“GST-PI3K1_C SH2 domain (human) (domain or fragment)”: the binding result in assay [1] and in assay [2] was “binds” in each case.
Consider “GST-PI3K1_N SH2 domain (human) (domain or fragment)”, for which the binding entry in assay [3] and in assay [4] was “binds” in each case.
In the case of “GST-PLCγ1_C SH2 domain (human) (domain or fragment)”, the binding result in assay [5], in assay [6], in assay [7], in assay [8], in [9] and in assay [10] was “binds” throughout.
On to “GST-PLCγ2_C SH2 domain (human) (domain or fragment)”, for which the binding entry in assay [7] is reported as “binds”; in [11], “no binding (tested: 0.25 uM)”.
Regarding “GST-PLCγ2_N SH2 domain (human) (domain or fragment)”, the binding result in [11] is “no binding (tested: 0.25 uM)”; in assay [12] it was “no binding (tested: >50 uM)”.
With “GST-PLCγ_N SH2 domain (human) (domain or fragment)”, in assay [6], the binding entry was “binds”.
Turning to “GST-Ptpn11_N SH2 domain (human) (domain or fragment)”, the binding result in [10] was “binds”; in assay [13], “no binding (tested: >50 uM)”; in assay [14] it was “no binding (tested: >50 uM)”.
For “GST-Rasa1_C SH2 domain (human) (domain or fragment)”, the binding result in assay [15] is “binds”; in assay [3] it was “binds”; in [16] it was “binds”; in assay [7], “binds”; in assay [4] it was “binds”; in [12] it was “no binding (tested: >17 uM)”. Moreover, the binding result in [17] is listed as “no binding (tested: >17 uM)”.
With “GST-Rasa1_N SH2 domain (human) (domain or fragment)”, the binding result in assay [5], in [3], in [16], in assay [7], in assay [10] and in assay [4] was “binds” in each case.
In the case of “GST-Syk_C SH2 domain (human) (domain or fragment)”, the binding result in assay [7] and in assay [10] was “binds” throughout.
As for “GST-Zap70_N SH2 domain (human) (domain or fragment)”, the binding result in [15], in assay [16] and in assay [18] was “binds” each time.
